The source of these data is PubChem BioAssay AID1347423 (Functional Genomics Laboratory (NCATS/FGL), 2020).

The whole screen tested about 52,000 sequences, of which about 210 (0.4%) were called active.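 The calls were made as follows: active = gene whose silencing raises cell survival under the drug, median off-target-corrected z-score across its silencing RNAs 2 or more; inactive = the rest.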 This is one part of the list.

The nature of this experiment: Resistance to Poly (ADP-Ribose) Polymerase inhibitor: Gene Identification via Genome-wide siRNA Screen. The following applies: mouse BRCA2 R2336H ES cells, olaparib, CellTiter-Glo viability; active compounds read high. A digest of the protocol:
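Mouse BRCA2 R2336H ES cells were reverse-transfected with siRNA (20 nM final), treated at 48 h with 500 nM olaparib, and read by CellTiter-Glo after 72 h. Scores: MAD-based z per siRNA, median per gene, seed off-target correction.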
Background: In ATP-based viability assays light output follows the ATP content of the culture.
On to “GCUUACAUCCAAGCCGUCUTT against 4931440B09Rik”, for which the z-score is inactive: 1.71.

Take GGAUCACCAAAAAUAGAUATT against D4Wsu53e: the z-score was inactive: 1.57.

For CCGUCGUACACAAUCUUACTT against Fgfr4, the z-score was inactive: 0.64.

In the case of “GACAAGCAAUAAAGAAAGATT against 1110008K04Rik”, the z-score was inactive: -0.134.

Turning to GUAUUAUAGACACCUUGCATT against Phip, the z-score is inactive: 1.78.

For GGAAAUAACAAGUUUUCCATT against Endogl1, the z-score is inactive: 0.802.

Consider GGUCUAUACCAUCCUAUUGTT against Faim2, for which the z-score is inactive: -1.24.

In the case of UUUGAACUUUCGAACCCGCTT against Tuba6, the z-score was inactive: -0.183.

Take GGCUGUCAAAACAGUGCUCTT against Hmgcs2: the z-score is inactive: 0.0432.

On to “GGGUGUAAGACUGUGUUUGTT against D230005D02Rik”, for which the z-score is inactive: 1.22.

For “GCUGUCCUACUGAGCUUGCTT against D330012F22Rik”, the z-score is inactive: -1.03.

CGGUGCUGUAUAUUCAUAUTT against Chrm4: the z-score was inactive: -0.0881.

GGUUGUGAUCAAUUAUUCATT against Evl: the z-score is inactive: 0.0791.

For the sequence GGAAGCUGAAAAAUGAACUTT against Sytl5, the z-score was inactive: 0.101.

With GGACAAUCAGUACCUUAACTT against Tex9, the z-score was inactive: -1.6.

Take GGUCUCAUCUAAGGUGUCATT against Pcdha7: the z-score was inactive: -0.386.

As to CCUGGAAACAUCAUGUAGUTT against Dctn1, the z-score was inactive: -0.704.

Consider GCCGGAUUCUUCAAAAGCUTT against Commd10, for which the z-score is inactive: -0.509.

With GGACACCUUUCAUCAAAUUTT against Nat3, the z-score is inactive: 1.31.

For GUGGCAAAUGCAAAUGCAATT against Fxyd3, the z-score is inactive: 0.922.

For the sequence “CCCAUUUGAGUGUACAUAATT against 3110001A13Rik”, the z-score was inactive: 1.64.

As to GGAGUGGGAUGAAAUUACATT against Slc35f4, the z-score is inactive: 0.314.

On to “GGAUGACUGCAUCUCUCUGTT against 2410166I05Rik”, for which the z-score was inactive: -0.258.

As to GGAGCUCAUGGAAAUCUGUTT against Pfpl, the z-score was inactive: 0.301.

With “GGUCCCUCUAGCUACAAAUTT against A630008I04”, the z-score is inactive: -0.165.

Consider GGCAACUAGCCCUAAAGGCTT against C78915, for which the z-score was inactive: 1.05.

On to GGACAUCUCCUUGAUCUUGTT against Slc1a5, for which the z-score was inactive: 1.22.

In the case of CGUUGUCAACUUUAUUUGCTT against Sara1, the z-score was inactive: 0.911.

With GCCAAUGGAGGGUUGGAUUTT against Thrap5, the z-score was inactive: -1.59.

On to “CCGUCUUCACCUGAUACAGTT against 1700013N18Rik”, for which the z-score was inactive: -1.24.

For “GGAUGACGGUGUCAUGUGCTT against D230007K08Rik”, the z-score was inactive: 0.0439.

For the sequence “GGCUUGUUGAGCCCUUACATT against 4930412M03Rik”, the z-score was inactive: 0.188.

Regarding GCGAUAUUUCAAGAGAAGCTT against Evc2, the z-score is inactive: 0.167.

With CGAUCUUCCAAACCCUCUUTT against Dhh, the z-score was inactive: -0.652.

As to GCCUGAUUGAUAAAGAAAUTT against Ppp1r14c, the z-score is inactive: -0.0886.

On to GGUUAGCUACAGAUAUAUUTT against Evi5, for which the z-score was inactive: -1.01.

With CCGAAGGAUUGAAGAGCCUTT against Trnt1, the z-score was inactive: 0.239.

Consider GGCCACCAUCAAUUUAUAUTT against Ripply1, for which the z-score was inactive: -0.64.

Consider GCAGAAUUGAAGCUGGAAUTT against Stag1, for which the z-score was inactive: 1.41.

As for “GGCAUCAAAAAGCAGACAATT against 4933404M02Rik”, the z-score is inactive: -1.1.

On to AUUGGACUUCUACAUGGCUTT against Olfr207, for which the z-score is inactive: -1.92.

For the sequence “GCUCCAGCUCUGCUUUAAGTT against 4931440P22Rik”, the z-score is inactive: -0.219.

On to GGGAGAUGAUAAUAUGUAUTT against Pogk, for which the z-score is inactive: -1.05.

On to GAGGUACUUACAGGUUGUCTT against Mageb1, for which the z-score is inactive: -0.93.

Regarding GGAGAUGAAUGUUUACAACTT against Sema6a, the z-score is inactive: -0.477.

In the case of GGCAGAUUGUGAAAAAACUTT against Slc9a6, the z-score is inactive: 1.17.

As for GGGAAUGACAGAAAUAUAATT against Golph2, the z-score is inactive: 0.57.

Turning to “CCAGAUUUAGGUUUCUUUCTT against 2210412K09Rik”, the z-score is inactive: 0.344.

Consider “GGGAAAGAAUUGGAUUGAATT against B230342M21Rik”, for which the z-score was inactive: 0.314.

GGCGUAUGCAGAAUUCUACTT against Cox6c: the z-score is inactive: 0.615.

As for GGAGGUUAUGAUUCUUCACTT against BC032265, the z-score was inactive: 1.3.

Consider GGAUAGUUUGGUAAUGAAATT against Cds1, for which the z-score was inactive: 1.81.

With GCUUCAUCGAACAAGUCGCTT against Pcbd, the z-score is inactive: -0.414.

Regarding “GCACCAUCGACUAAUCAAATT against 1700029J07Rik”, the z-score was inactive: 0.709.

On to GCAAGCAGAGAUGUUACAUTT against Olfr1284, for which the z-score was inactive: 0.528.

As for GGUUCCUACACGAAAGGAUTT against Eif2b4, the z-score is inactive: -0.829.

Turning to GGUUCUCCAGUUUGUCCGATT against Evx2, the z-score was inactive: 0.341.

For the sequence “GGAGAUAAAGGCUCUCUUCTT against 2510006D16Rik”, the z-score was inactive: -1.06.

For CCGUGGCGUAUGUGAUCAATT against Map3k5, the z-score was inactive: -1.86.

GCAACAGGUUAGCGAAACCTT against Bid3: the z-score was active: 0.43.

Turning to GGCUCUCUGUCUGGAAAAGTT against Cspg2, the z-score is inactive: -0.157.

For the sequence CCUUUUUUAUAUCCACUCATT against BC060615, the z-score is inactive: 0.82.

For the sequence GGUGCCAUUGACAUUUAAUTT against Zcchc6, the z-score is inactive: 0.417.

Take “GGAGCUGAAGCAAAGACAGTT against 2410005K17Rik”: the z-score is inactive: -2.36.

Turning to GGACUUUCCAGUAAGGAAATT against Mapk8ip, the z-score is inactive: -0.0305.

Take “GGCUUCAAACAUUUACUGGTT against 2010009L17Rik”: the z-score is inactive: 1.76.

In the case of GGAAUGCUUAGUGAAAUUUTT against Elys, the z-score was inactive: -0.57.

With “GGUUUACAAGUUUCUAAGCTT against B230113M03Rik”, the z-score is inactive: 0.539.

As for GGCUUCAUUUCUUGAUGAUTT against Cenpc1, the z-score was inactive: -0.896.

In the case of GCUAACAUUUUAAUGGCCCTT against Pnoc, the z-score was inactive: 0.192.

Consider GGGAUCAAUUGAGUGUAAUTT against Slc16a10, for which the z-score is inactive: 0.886.

Consider GGAGAAGAUUGUCAACAUUTT against Cyp1a2, for which the z-score was inactive: 0.918.

Consider GGCCUGAGGACAUUGAAUATT against Nat5, for which the z-score was inactive: 0.56.

For the sequence GGCCGAAGCAUCUUCAAGATT against BC037651, the z-score is inactive: 0.251.

Regarding GGCUAUGGAAACCACCACATT against Nrg3, the z-score was inactive: -1.92.

Turning to GGGAGGAAUUUGAUAAGAUTT against Cpsf5, the z-score was inactive: 2.02.

For the sequence GGAAAGAUUGGAUUUGAAGTT against Zfp318, the z-score is inactive: 0.103.

Take CCUAUUCCUAACCACAAGATT against Ppap2c: the z-score was inactive: -0.178.

As for CGCGCUGGUACAAUCUCCUTT against BC037006, the z-score was inactive: 0.659.

For “CCCUAUUGAUUCAACUUGGTT against 4930542N07Rik”, the z-score is inactive: 2.88.

As to CGUGAACAAUUACUGAGCCTT against Wars2, the z-score is inactive: -0.337.

With “CCAUUUGAACAGUCCGUCUTT against 8030451K01Rik”, the z-score was inactive: 1.48.

As to GCCCUUCGUGAUGAAGAAUTT against B4galt3, the z-score is inactive: 0.149.

Consider CCCACCUGGCUUUUAUUGATT against Olfr1042, for which the z-score is inactive: 0.31.

With GGCAAAUGUAAAGUUAGGUTT against Zfp191, the z-score was inactive: 0.218.

In the case of “GGCUCCUCGGUUUAAAGGUTT against 4930550B20Rik”, the z-score was inactive: 0.889.

In the case of GGAAUAUACGAGAAAACCUTT against Epha7, the z-score was inactive: 2.71.

Take CCACUAAUAGUCGUAGAAUTT against Dte: the z-score was inactive: 0.736.

“GGAGCUCUCUAUUUAGUUATT against E130114P18Rik”: the z-score is inactive: 0.139.

On to GGUCUACUUUAGACAACUUTT against Sdc1, for which the z-score is inactive: 1.31.

On to GGCAGAAAUUUGGAUACCATT against Plekha4, for which the z-score was inactive: -1.03.

As to GCCCUUCGCUUAAAGACCATT against Nrbf1, the z-score is inactive: 0.0954.

As for GGAAAAUUCUUCCAACAUCTT against Csdufd1, the z-score was inactive: -0.471.

Consider GGGAGAAGAGGAACAGUUCTT against Slc25a17, for which the z-score was inactive: -2.54.

As to GCAAUUGAAAGUGAACAAUTT against Olfr1360, the z-score was inactive: -1.58.

On to GGAAGACCUUGUGUUUGCATT against Mmp13, for which the z-score is inactive: -0.534.

On to GGAACUUUCAGAAUCAAUGTT against Cdh13, for which the z-score was inactive: -0.111.

Regarding GGAAUACAUUCCUUUUAAGTT against Gpx3, the z-score was inactive: -0.23.

On to GAUCCUCUCUAGUACUUGATT against Ldoc1, for which the z-score is inactive: 0.779.

As for GGAUUUCAGCGAAGUGUACTT against Mapk11, the z-score is inactive: 0.507.

Turning to GGAUGCUUGUGAAUAUGCUTT against Olfr346, the z-score was inactive: -0.285.

On to GGACAGCUGUUUCAAUUCUTT against Il1rap, for which the z-score was inactive: -1.38.

As to GCGAUUAAUGGCAUAGUUUTT against Sara1, the z-score was inactive: -1.04.

As to GGUGGAAUAUAGCUUCAUCTT against Ifngr2, the z-score was inactive: -0.8.
